Here are results for one molecule from publication PMC5915836, “Chiral probes for α1-AGP reporting by species-specific induced circularly polarised luminescence” (Chemical Science, 2018).

For the experiment, the target named is T1, bovine α1-AGP (α1-acid glycoprotein) (Bos taurus, UniProt Q3SZR3).
T1 construct: gene ORM1
T1 sequence (Q3SZR3 19-202): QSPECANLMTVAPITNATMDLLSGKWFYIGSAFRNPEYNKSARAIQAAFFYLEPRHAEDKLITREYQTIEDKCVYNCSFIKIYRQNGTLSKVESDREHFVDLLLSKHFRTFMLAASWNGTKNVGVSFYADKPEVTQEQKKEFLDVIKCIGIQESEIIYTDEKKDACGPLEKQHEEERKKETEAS
Briefly: competitive displacement of [EuL^[…]], Eu emission. The class given is binding. As to conditions: pH 7.40, 298 K; probe not completely displaced, emission quenching read-out.

Turning to `Cc1ccc(NC(=O)c2ccc(CN3CCN(C)CC3)cc2)cc1Nc1nccc(-c2cccnc2)n1` [imatinib], the Imatinib is 4.8.
